# Results taken from article PMC7819943, “Rice protein-binding microarrays: a tool to detect cis-acting elements near promoter regions in rice”.
# The other results are listed elsewhere or left out.
# Target: T1, OsSMF1 (Oryza sativa, UniProt Q6ZLB0 1-436)
# T1 sequence: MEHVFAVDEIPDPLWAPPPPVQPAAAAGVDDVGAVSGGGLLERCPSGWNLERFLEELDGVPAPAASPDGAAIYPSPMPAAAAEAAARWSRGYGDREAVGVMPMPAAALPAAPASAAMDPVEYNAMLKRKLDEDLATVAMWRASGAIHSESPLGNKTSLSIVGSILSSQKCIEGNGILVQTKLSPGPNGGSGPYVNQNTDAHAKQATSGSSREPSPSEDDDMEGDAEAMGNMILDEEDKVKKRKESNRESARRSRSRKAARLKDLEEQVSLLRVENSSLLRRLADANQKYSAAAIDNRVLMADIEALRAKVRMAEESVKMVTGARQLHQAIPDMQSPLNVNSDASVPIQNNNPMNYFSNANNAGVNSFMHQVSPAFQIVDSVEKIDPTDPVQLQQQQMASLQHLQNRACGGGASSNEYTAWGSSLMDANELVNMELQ
# Test: protein-binding microarray (RPBM); PBS, 2% BSA, 51.3 ng/ul salmon testes DNA, 50 uM zinc acetate, 200 nM TF, 25 C, 1 h; high values mean tight binding
# Details: protein: recombinant; tags: N-terminal polyhistidine and DsRed monomer fusion (pET32a); chain copies: 2; label: CyDye5-dUTP incorporated in the synthesized complementary strand; 3' TTTTT single-stranded linker to array surface; dsDNA, one strand shown
# Summary of the method: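 Transcription factors were each fused at the N-terminus to a polyhistidine tag plus DsRed and expressed in E. coli BL21-CodonPlus before Ni–NTA purification. Binding to a double-stranded custom Agilent array was carried out with 200 nM protein at 25 °C for 1 h in PBS, 2% BSA, salmon testes DNA and 50 µM zinc acetate. The binding signal is per-feature fluorescence intensity, in arbitrary units, on an Axon 4000B scanner.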
row,Sequence,binding signal
1,TTTCTGCTTACAAGGTTTTCAGCATTTGAGCAATTGACCTCGGAGTCACCTAGTGCAG,3660 fluorescence intensity (a.u.)
2,ACCGCCAGCAGCGGCGACCTCGTCATCGATCTCGCCTCACCGGAGTCACCTAGTGCAG,8230 fluorescence intensity (a.u.)
3,TATGTAGTCGTGGCCTTCATGCAGAGCATCATCTTCCTCCCGGAGTCACCTAGTGCAG,20600 fluorescence intensity (a.u.)
4,TATTTATAGCCCATTTCCATGGCTCCCGCACCACACTCCCCGGAGTCACCTAGTGCAG,16600 fluorescence intensity (a.u.)
5,TATCATTTGTCAAACACACCCATATCCCATTTGCCAATCACGGAGTCACCTAGTGCAG,3890 fluorescence intensity (a.u.)
6,GCCATTATTACGGGTCCATGCCAACACATGTGTAACACAACGGAGTCACCTAGTGCAG,4200 fluorescence intensity (a.u.)
7,TGACCTGAAGATATTTAATGTAAAATTTTATCTCTAATGACGGAGTCACCTAGTGCAG,18200 fluorescence intensity (a.u.)
8,TACTACGACGGGAAGGCCGGGAGGTACGTGGGGAAGCAAGCGGAGTCACCTAGTGCAG,3410 fluorescence intensity (a.u.)
9,GGGGCCACATCGTCAGTGAAACGGACGGGTATAGGGTTAGCGGAGTCACCTAGTGCAG,3270 fluorescence intensity (a.u.)
10,ATGCTACACGTACATCCGAAATGTCACGCCGTTGTGCATTCGGAGTCACCTAGTGCAG,4210 fluorescence intensity (a.u.)
11,GAATTGATCAATGCTCATCACTGTCACTTGAGAACAGATGCGGAGTCACCTAGTGCAG,3580 fluorescence intensity (a.u.)
12,ATCAGCTAAGGCCAATCGGTGGATTACACACATTGGGTTCCGGAGTCACCTAGTGCAG,47600 fluorescence intensity (a.u.)
13,TCATGGCAGCCGACGTCTCCATCCCCACGCCGCCTCTCTGCGGAGTCACCTAGTGCAG,3500 fluorescence intensity (a.u.)
14,TGCCCACGCCGCGCCGCCGCCTCCTCCTCCTCCTCCTCCTCGGAGTCACCTAGTGCAG,46900 fluorescence intensity (a.u.)
15,TGAAGATAATGACTCGACGATTGTCCAAAATATTCTTGCCCGGAGTCACCTAGTGCAG,5160 fluorescence intensity (a.u.)
16,TAGCTCGATCGCGCGGTCGCCGGAGCTGAGGTAGACGAAGCGGAGTCACCTAGTGCAG,4260 fluorescence intensity (a.u.)
17,TAGTAGCAGCAGAAGATGTCTATGCAAGGCGTTGTTCCTGCGGAGTCACCTAGTGCAG,16700 fluorescence intensity (a.u.)
18,GAGCCGCCCTGCTGACCAGCATCGACGTCACCGCTCGGGCCGGAGTCACCTAGTGCAG,22800 fluorescence intensity (a.u.)
19,GGTGGGCCCCTAACCATCACCCCTACTACGTCACCAAGCTCGGAGTCACCTAGTGCAG,4410 fluorescence intensity (a.u.)
20,GTCCTCCATGAACAGTCCCACCGAGTTGTCTATTTACGTTCGGAGTCACCTAGTGCAG,3480 fluorescence intensity (a.u.)
21,CGTTTCCCTTCTTGGAGGCGTTGTCATGGCGTTCTTTCATCGGAGTCACCTAGTGCAG,3390 fluorescence intensity (a.u.)

# Three records drawn at random from those above:
row,Sequence,binding signal
8,TACTACGACGGGAAGGCCGGGAGGTACGTGGGGAAGCAAGCGGAGTCACCTAGTGCAG,3410 fluorescence intensity (a.u.)
18,GAGCCGCCCTGCTGACCAGCATCGACGTCACCGCTCGGGCCGGAGTCACCTAGTGCAG,22800 fluorescence intensity (a.u.)
11,GAATTGATCAATGCTCATCACTGTCACTTGAGAACAGATGCGGAGTCACCTAGTGCAG,3580 fluorescence intensity (a.u.)

# Remaining list, next part:

row,Sequence,binding signal
1,TGGGCCTACGTCAACTACGACATGCGTGGCCTTATCTTTTCGGAGTCACCTAGTGCAG,5480 fluorescence intensity (a.u.)
2,TTTTATCCGGATGTGCGGCATCTTCGTTGTCTCCCTCGCTCGGAGTCACCTAGTGCAG,3720 fluorescence intensity (a.u.)
3,TACAGTATAAGAGGACGGTAAGCAAATGTTCTGAAGAGTCCGGAGTCACCTAGTGCAG,35000 fluorescence intensity (a.u.)
4,CCTCAGCATAGTGGAGTGCAGTAGGTGACACTTCCAAATTCGGAGTCACCTAGTGCAG,3840 fluorescence intensity (a.u.)
5,TGATCGTGATAAAGCGAATACTAGTCAAGCATGCGCGTGTCGGAGTCACCTAGTGCAG,3990 fluorescence intensity (a.u.)
6,CACGCATAAATGCTTCGCGATTACTCATCTTCCGAGAGTACGGAGTCACCTAGTGCAG,3770 fluorescence intensity (a.u.)
7,GCCTCCTCCCTGTCCGCCGCCGCCGCCGCCGCTCGCCGGACGGAGTCACCTAGTGCAG,3150 fluorescence intensity (a.u.)
8,GTGACCTATTGACTGTACCAGTATCCTTTTGCAAGATGGACGGAGTCACCTAGTGCAG,3410 fluorescence intensity (a.u.)
9,ACGCGCTGGCTGAGCGCTGACGACGCGTCCCTCCTCCTTCCGGAGTCACCTAGTGCAG,3870 fluorescence intensity (a.u.)
10,CATCACACAAACATCCCCGTCGCGTGGACTCGCGAACCCCCGGAGTCACCTAGTGCAG,3420 fluorescence intensity (a.u.)
11,ACGACATTCAATTCCAGTTGACGTGGCGCTGAGGTGTCTACGGAGTCACCTAGTGCAG,29300 fluorescence intensity (a.u.)
12,TTTCTCTGAACGACCGGCCACGTTAAACTAAGGCCAAGTCCGGAGTCACCTAGTGCAG,65500 fluorescence intensity (a.u.)
13,AGGCAGGGTGGGTGGGTGGTGGGCTTGCTCGCTCCGCGTCCGGAGTCACCTAGTGCAG,5810 fluorescence intensity (a.u.)
14,TAACTGCCGAACTGTACTGACAGGTCATCCGGTCCCACCTCGGAGTCACCTAGTGCAG,7130 fluorescence intensity (a.u.)
15,GCCGCCACGTGTGGGCCGCAGCCGCATCTCTTCTCTCTCTCGGAGTCACCTAGTGCAG,8900 fluorescence intensity (a.u.)
16,GGAGAACGGATGTGTATGGCATGGCATTACTCATGGATTACGGAGTCACCTAGTGCAG,3590 fluorescence intensity (a.u.)
17,GCCGCCGCCGCCGCCGTCGGAGAGGCGCTCCGCCGCGGCGCGGAGTCACCTAGTGCAG,10300 fluorescence intensity (a.u.)
18,TTTAGGAGTTTAGGGGTCGAGATATCCGGTTTTGTAGTTTCGGAGTCACCTAGTGCAG,22400 fluorescence intensity (a.u.)
19,AAATCAACGGTGAGATTAGATAGTGCCATGTGGCGACTTACGGAGTCACCTAGTGCAG,24800 fluorescence intensity (a.u.)
20,GGGATTTAGCTGTTGGTGTAGTGGGTGGAAGGCTAGAAGGCGGAGTCACCTAGTGCAG,3160 fluorescence intensity (a.u.)
21,GACTGATGAAGATAAAATTCAGGCTGTCAGCAATTGGCCTCGGAGTCACCTAGTGCAG,3680 fluorescence intensity (a.u.)
